These are yes or no findings as the source states them, for the method shown. Binding seen in cells or lysates may run through a third protein. Some binding calls cover weakened binding; strength is not graded here. Tags and fused reporters may be left off the sequences shown.
Biological target: T1, GFP–TOPORS WT (human) (UniProt Q9NS56)
T1 sequence: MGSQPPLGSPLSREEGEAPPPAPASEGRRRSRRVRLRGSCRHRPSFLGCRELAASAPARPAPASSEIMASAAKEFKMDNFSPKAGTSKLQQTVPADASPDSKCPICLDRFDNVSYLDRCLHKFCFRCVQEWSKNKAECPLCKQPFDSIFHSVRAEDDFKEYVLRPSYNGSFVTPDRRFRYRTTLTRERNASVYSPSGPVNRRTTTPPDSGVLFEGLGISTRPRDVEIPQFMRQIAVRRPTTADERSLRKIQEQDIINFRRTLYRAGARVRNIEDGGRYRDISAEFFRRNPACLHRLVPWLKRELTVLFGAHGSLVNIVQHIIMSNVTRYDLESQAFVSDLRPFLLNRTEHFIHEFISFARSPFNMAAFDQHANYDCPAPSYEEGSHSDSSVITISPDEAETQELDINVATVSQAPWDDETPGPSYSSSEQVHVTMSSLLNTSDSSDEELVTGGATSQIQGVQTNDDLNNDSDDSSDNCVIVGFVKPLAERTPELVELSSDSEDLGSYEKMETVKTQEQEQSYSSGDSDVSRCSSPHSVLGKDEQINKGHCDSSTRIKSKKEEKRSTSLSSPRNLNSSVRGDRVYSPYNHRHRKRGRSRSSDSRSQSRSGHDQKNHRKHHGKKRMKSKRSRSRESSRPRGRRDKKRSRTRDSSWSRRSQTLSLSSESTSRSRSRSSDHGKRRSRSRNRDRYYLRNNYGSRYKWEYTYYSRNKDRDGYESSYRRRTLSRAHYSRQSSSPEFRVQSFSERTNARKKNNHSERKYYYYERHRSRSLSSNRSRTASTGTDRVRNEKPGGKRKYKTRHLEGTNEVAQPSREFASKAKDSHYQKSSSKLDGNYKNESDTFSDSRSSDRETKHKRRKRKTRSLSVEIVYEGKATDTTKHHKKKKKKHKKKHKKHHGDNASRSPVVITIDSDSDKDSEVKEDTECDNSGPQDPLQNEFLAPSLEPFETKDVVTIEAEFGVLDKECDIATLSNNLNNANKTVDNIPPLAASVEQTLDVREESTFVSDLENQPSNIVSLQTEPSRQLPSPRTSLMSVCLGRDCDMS
Experiment: co-IP; U2OS cells transfected with GFP expression plasmids, lysed in EBC buffer, GFP IP (GFP-Trap agarose, overnight, 4 °C); immunoblot

Amino acid sequences for entries named in this document (tags omitted).
UniProt Q93009: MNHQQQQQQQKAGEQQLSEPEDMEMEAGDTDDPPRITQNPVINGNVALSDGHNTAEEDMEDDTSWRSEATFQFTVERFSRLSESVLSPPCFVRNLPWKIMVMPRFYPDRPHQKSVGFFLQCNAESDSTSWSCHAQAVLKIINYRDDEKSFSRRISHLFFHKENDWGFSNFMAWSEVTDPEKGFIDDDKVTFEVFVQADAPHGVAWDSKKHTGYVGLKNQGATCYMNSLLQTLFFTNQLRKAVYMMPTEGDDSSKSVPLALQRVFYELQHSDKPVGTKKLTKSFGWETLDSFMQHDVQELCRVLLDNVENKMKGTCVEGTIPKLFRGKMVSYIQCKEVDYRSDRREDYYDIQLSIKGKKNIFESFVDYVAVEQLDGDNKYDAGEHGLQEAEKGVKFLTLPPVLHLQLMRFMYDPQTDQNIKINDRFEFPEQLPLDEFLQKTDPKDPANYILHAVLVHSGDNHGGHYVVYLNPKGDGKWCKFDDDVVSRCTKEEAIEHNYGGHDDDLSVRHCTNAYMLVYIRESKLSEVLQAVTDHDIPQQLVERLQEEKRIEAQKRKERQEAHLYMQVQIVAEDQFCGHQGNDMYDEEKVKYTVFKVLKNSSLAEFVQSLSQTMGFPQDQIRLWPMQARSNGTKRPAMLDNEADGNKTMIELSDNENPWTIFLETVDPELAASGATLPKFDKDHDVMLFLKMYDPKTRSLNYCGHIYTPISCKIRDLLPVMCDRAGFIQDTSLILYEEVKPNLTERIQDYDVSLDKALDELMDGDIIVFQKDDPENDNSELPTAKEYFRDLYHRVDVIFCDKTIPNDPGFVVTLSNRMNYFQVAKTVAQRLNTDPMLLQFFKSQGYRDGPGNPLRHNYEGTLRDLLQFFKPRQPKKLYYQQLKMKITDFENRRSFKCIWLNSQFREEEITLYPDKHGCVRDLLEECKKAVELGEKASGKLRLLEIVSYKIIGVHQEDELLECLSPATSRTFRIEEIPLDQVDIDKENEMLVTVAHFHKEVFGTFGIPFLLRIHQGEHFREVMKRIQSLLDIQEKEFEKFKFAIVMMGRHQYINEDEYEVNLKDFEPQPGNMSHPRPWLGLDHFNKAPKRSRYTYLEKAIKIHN

binding: binds
Substance: USP7 (endogenous, U2OS) (from UniProt Q93009 1-1102) (enzyme)
